This assay in a line: qHTS Assay to Find Inhibitors of Chronic Active B-Cell Receptor Signaling. As to conditions: ABC-DLBCL IkBa-CBG/CBR reporter, luminescence ratio (green luciferase fused to IkBa over red control in TMD8 lymphoma cells), 4 h. Put shortly:
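Concentration-response series (up to 46 uM) were applied to TMD8 dual-reporter cells for 4 h at 37C with doxycycline. Green/red ratio, after filter-overlap correction, defined %Activity; red signal alone was normalised to basal cells and zero luminescence.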

The mark [1] stands for this setting: measured here: CBR red luminescence, cell number.

AC50 data for 18 molecules are collected here from PubChem BioAssay AID493014 (National Center for Advancing Translational Sciences (NCATS), 2011).

As usually defined, the AC50 is the concentration at which the activity in the assay is half-maximal.

The list shows a part of the results. These are further read-outs of the screen, such as a control signal, another cell line or another target. No call is given for them. The list favours compounds with an active or inconclusive main result. The note in brackets gives the kind of curve behind each potency; many fits are weak.

Take `Cc1ccc(CNC(=O)CN2C(=O)NC(C)(c3cccc(Br)c3)C2=O)cc1` (centres undefined): the AC50 under setting [1] was 3.16 µM [falling, single point]. As for `COc1ccc(Br)cc1/C=N/NC(=O)Cn1nnnc1N`, the half-maximal activity concentration (AC50) under setting [1] is 35.5 µM [falling, single point]. On to `O=C(Nc1ccc(Cl)cc1)N1CCSC1=NCc1ccccc1`, for which, under setting [1], the half-maximal activity concentration (AC50) is 2.82 µM [rising, partial curve, poor fit]. `NC(=O)C1CCN(C(=O)c2ccc(NS(=O)(=O)c3ccc(F)cc3)cc2)CC1`: the AC50 under setting [1] is 29.1 µM [falling, single point]. Same read-out and setting: as for `CCOC(=O)c1cc2sccc2n1CC(=O)OC`, the figure is 29.1 µM [falling, single point]. As to `COc1ccc2c(=O)c3c(=O)n(Cc4ccco4)c(-c4ccc(C)cc4)nc3oc2c1`, the concentration at half-maximal activity (AC50) is, setting by setting: under setting [1], 1.84 µM [falling, full curve]; (measured here: IkBa-CBG green luminescence) 20.6 µM [rising, partial curve, poor fit]. With `Cc1ccccc1C(=O)NNC(=S)NC(=O)c1cccs1`, the half-maximal activity concentration (AC50) under setting [1] is 4.47 µM [falling, partial curve]. On to `COc1ccc(S(=O)(=O)/N=C2/NC(=O)/C(=C\c3cc(OC)c(OC)cc3[N+](=O)[O-])S2)cc1`, for which the half-maximal activity concentration (AC50) under setting [1] was 29.1 µM [rising, single point]. Regarding `CCOC(=O)CCSc1nc(C)c2ccccc2n1`, the AC50 under setting [1] is 20.6 µM [rising, partial curve].

On to `COc1cc(OC)c(NC(=O)C2CC(=O)N(c3ccc4c(c3)OCCO4)C2)cc1Cl` (centres undefined), for which, under setting [1], the AC50 is 0.082 µM [rising, full curve, poor fit].

`COc1ccccc1N1CCN(CC(=O)c2ccc(F)cc2)CC1`: the AC50 under setting [1] was 35.5 µM [falling, single point]. The same measure, in the same setting: as for `O=[N+]([O-])c1cccc2ccc(/C=C/c3ccc(Cl)cc3)nc12`, the figure is 0.92 µM [rising, full curve]. `Cc1[nH]ccc2c1[nH]c1cc(=O)ccc12`: the half-maximal activity concentration (AC50) under setting [1] was 35.5 µM [falling, single point]. On the same count and under the same terms, as for `CCCCOC(=O)c1nc(Cl)c(Cl)c(N)c1Cl`, the figure is 13 µM [rising, single point].

`CC(C)C(=O)NNc1nc2ccccc2s1`: the half-maximal activity concentration (AC50) under setting [1] is 6.51 µM [rising, full curve]. Same read-out and setting: as for `CC(=O)Nc1ccc(Nc2ncnc3c2cnn3-c2ccccc2)cc1`, the figure is 0.355 µM [falling, full curve, poor fit]. On the same count and under the same terms, with `COc1ccc(/C=N/NC(=O)CN(CCc2ccccc2)S(=O)(=O)c2ccc(NC(C)=O)cc2)cc1OC` the figure was 4.61 µM [rising, full curve]; with `C/C(N)=C(/C#N)C(=O)COC(=O)CCSc1ccccc1Cl`, 6.51 µM [rising, full curve, poor fit].
